# Measurements as given in patent US20060013780A1, “N,N'-dialkyl derivatives of polyhydroxyalkyl alkylenediamines” (priority 2004, published 2006).
# Some entries share one result that the patent states for a list of compounds.
# Test: Dynamic surface tension, maximum bubble pressure method
# Type: physicochemical
# Conditions: Table 4 data; strong at low bubble rates
# Procedure: Solutions in distilled and deionized water of the surfactants of the invention were prepared. […] In a practical sense, high surface creation rates refer to rapid processes such as a spray or roller-applied coating, a high speed printing operation, or the rapid application of an agricultural product or a cleaner.
smiles,measurement,value
CCCCCCCCNC[C@H](O)[C@@H](O)[C@H](O)[C@H](O)CO [N-Octylglucamine],dynamic surface tension reduction in words,strong
